For 30 targets, log2 fold change results are on record in the supplement of paper PMC12819154, “High-throughput peptide-centric local stability assay extends protein–ligand identification to membrane proteins, tissues and bacteria” (Nature Structural & Molecular Biology, 2025).

By UniProt entry, the sequences of proteins in these tests, tags left out. Where a name states a change or a piece, a line headed by the entry shows the natural chain unless it says otherwise.
UniProt Q69ZF8: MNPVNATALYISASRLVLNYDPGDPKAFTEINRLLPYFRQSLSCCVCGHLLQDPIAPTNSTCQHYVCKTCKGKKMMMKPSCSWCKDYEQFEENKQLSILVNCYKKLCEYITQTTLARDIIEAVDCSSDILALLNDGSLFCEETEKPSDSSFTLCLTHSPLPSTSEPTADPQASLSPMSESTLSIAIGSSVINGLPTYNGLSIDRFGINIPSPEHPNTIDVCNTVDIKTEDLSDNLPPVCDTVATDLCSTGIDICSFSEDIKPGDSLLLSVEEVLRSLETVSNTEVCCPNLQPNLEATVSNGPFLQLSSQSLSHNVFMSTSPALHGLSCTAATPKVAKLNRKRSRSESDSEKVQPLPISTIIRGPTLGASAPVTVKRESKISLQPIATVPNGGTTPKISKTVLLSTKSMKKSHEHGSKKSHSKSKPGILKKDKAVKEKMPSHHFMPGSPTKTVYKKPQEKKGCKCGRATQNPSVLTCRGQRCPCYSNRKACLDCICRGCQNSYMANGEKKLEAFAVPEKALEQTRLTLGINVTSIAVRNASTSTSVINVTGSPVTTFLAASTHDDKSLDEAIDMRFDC
UniProt Q61908: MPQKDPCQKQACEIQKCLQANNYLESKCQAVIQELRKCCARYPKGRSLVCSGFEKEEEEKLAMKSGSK
UniProt Q62165: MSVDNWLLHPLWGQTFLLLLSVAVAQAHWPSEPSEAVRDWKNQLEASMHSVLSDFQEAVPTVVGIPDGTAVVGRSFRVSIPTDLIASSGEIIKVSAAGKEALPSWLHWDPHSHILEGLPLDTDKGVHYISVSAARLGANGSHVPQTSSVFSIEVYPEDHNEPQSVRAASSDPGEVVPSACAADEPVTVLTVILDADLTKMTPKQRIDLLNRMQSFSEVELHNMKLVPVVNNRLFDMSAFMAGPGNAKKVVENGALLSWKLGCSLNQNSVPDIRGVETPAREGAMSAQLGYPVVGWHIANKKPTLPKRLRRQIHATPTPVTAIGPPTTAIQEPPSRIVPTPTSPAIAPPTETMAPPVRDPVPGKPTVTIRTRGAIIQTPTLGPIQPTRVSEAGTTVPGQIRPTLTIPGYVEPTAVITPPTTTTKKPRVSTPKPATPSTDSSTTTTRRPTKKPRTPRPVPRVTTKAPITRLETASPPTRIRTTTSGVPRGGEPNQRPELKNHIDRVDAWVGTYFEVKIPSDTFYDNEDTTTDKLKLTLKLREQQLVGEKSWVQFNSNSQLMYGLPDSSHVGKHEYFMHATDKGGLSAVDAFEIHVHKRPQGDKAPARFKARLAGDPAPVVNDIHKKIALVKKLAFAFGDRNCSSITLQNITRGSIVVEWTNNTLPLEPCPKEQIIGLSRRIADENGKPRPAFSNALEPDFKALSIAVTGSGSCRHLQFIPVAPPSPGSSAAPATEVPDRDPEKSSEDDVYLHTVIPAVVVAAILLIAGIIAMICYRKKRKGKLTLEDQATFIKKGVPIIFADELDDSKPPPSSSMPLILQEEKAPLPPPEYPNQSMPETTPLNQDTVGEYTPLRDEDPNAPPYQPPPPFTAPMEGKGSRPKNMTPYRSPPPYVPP
UniProt Q62448: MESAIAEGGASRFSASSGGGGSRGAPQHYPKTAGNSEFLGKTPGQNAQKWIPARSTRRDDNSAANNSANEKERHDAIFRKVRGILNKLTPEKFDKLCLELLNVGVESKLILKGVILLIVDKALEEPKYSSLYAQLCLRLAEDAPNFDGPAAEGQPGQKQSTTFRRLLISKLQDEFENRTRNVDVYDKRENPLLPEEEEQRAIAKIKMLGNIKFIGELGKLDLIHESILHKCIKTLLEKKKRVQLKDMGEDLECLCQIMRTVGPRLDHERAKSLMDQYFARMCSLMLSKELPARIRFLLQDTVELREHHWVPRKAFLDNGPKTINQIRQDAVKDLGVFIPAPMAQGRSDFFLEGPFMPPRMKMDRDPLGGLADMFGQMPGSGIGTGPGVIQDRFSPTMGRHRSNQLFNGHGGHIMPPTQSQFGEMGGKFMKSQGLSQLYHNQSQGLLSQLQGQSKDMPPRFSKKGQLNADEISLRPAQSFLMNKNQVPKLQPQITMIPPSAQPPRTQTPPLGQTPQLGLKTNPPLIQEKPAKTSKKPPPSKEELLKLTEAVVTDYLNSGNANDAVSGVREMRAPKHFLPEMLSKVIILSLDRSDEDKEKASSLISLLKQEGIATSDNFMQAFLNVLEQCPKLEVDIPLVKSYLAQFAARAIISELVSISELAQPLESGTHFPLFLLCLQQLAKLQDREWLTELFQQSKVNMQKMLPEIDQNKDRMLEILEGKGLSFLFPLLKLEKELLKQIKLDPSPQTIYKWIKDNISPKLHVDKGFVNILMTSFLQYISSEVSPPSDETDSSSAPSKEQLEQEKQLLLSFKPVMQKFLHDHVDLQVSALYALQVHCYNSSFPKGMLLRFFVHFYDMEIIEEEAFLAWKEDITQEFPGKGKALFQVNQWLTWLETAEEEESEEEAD
UniProt Q61387: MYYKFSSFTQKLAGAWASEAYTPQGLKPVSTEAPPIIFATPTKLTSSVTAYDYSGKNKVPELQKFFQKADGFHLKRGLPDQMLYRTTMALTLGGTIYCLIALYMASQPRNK
UniProt Q62187: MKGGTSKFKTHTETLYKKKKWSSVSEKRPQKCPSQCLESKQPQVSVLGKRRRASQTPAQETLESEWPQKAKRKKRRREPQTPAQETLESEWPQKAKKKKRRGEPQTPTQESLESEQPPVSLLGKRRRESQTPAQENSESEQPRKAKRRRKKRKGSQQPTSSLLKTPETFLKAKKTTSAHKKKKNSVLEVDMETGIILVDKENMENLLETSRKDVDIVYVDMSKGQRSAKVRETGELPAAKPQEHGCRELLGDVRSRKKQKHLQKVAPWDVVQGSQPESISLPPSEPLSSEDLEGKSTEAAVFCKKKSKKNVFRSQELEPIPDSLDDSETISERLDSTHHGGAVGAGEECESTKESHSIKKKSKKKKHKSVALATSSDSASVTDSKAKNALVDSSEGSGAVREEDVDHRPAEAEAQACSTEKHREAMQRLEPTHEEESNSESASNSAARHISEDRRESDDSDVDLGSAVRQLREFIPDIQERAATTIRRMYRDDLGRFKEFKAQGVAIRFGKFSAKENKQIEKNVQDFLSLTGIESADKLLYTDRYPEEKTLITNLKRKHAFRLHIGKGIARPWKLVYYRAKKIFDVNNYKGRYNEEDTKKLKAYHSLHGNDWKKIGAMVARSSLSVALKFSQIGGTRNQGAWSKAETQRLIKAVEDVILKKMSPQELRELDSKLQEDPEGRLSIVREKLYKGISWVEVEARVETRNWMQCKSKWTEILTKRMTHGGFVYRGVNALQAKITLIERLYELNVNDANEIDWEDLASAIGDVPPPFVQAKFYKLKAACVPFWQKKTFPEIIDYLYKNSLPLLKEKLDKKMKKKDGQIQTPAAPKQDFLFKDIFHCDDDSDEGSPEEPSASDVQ
UniProt Q64458: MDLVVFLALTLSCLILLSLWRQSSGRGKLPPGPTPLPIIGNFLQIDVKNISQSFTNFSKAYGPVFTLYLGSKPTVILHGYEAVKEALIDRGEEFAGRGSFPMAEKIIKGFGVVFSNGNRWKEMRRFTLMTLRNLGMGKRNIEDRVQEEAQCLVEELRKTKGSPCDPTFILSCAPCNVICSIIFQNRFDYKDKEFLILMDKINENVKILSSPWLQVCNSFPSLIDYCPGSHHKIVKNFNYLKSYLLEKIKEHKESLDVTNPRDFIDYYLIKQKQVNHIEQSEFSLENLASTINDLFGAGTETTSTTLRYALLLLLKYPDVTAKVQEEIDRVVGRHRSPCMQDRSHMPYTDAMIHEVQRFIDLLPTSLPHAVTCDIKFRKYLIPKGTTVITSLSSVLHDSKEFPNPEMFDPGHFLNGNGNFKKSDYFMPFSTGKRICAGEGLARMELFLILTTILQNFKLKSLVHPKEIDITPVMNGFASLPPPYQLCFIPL
UniProt Q61606, whole entry: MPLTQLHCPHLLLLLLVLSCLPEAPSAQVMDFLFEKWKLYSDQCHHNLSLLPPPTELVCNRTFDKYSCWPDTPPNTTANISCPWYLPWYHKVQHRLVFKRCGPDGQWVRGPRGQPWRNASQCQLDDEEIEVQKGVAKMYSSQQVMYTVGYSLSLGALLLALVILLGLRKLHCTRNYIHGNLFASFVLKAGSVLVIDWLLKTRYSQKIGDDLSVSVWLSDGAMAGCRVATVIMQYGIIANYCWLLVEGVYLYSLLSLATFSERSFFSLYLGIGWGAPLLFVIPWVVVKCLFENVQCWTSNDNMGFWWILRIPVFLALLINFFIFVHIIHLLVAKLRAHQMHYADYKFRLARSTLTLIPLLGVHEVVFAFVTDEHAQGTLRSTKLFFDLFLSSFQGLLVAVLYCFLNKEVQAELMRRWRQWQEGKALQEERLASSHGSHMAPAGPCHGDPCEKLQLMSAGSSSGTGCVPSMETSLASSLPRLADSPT
UniProt Q62481, whole entry: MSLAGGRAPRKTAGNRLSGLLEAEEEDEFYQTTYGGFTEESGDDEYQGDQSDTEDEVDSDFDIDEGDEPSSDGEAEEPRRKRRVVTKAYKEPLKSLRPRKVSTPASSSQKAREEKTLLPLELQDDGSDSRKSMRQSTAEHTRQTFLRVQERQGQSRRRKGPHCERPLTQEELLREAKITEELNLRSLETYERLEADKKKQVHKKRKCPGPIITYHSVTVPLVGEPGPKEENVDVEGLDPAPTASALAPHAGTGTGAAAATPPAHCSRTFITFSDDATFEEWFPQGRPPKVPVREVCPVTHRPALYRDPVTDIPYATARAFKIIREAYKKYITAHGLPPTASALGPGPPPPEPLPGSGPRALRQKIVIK
UniProt Q68FE6: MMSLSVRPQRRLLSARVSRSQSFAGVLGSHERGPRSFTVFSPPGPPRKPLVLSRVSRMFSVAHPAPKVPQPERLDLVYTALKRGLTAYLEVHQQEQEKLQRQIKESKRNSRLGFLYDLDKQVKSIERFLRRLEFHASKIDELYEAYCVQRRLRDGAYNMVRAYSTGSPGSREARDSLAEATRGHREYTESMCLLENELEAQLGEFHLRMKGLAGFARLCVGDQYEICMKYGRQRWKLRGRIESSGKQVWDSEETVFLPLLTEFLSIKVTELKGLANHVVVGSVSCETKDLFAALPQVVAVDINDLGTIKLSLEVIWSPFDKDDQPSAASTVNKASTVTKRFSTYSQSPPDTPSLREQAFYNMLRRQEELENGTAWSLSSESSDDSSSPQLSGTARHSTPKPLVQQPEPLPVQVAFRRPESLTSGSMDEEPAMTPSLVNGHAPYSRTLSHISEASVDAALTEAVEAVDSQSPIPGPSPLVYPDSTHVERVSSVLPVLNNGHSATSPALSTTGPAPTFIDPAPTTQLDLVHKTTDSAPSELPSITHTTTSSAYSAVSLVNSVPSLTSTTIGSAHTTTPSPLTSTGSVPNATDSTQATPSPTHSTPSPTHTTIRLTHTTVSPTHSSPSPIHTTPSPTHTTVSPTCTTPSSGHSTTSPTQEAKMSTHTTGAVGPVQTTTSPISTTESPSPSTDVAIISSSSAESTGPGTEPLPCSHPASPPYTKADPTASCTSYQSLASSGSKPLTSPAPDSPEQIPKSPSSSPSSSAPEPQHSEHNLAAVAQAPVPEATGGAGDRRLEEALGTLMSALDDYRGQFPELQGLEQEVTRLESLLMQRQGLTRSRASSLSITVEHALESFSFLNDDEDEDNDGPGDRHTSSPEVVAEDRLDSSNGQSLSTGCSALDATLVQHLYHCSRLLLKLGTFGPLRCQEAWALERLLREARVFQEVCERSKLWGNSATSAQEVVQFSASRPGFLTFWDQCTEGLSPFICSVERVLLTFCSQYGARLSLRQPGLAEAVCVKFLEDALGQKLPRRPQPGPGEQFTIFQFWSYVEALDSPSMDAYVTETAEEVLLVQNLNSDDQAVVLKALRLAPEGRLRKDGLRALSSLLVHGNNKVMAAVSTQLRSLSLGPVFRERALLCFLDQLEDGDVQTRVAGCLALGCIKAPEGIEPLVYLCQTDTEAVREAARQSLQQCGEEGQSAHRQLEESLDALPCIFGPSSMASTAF
UniProt Q62203: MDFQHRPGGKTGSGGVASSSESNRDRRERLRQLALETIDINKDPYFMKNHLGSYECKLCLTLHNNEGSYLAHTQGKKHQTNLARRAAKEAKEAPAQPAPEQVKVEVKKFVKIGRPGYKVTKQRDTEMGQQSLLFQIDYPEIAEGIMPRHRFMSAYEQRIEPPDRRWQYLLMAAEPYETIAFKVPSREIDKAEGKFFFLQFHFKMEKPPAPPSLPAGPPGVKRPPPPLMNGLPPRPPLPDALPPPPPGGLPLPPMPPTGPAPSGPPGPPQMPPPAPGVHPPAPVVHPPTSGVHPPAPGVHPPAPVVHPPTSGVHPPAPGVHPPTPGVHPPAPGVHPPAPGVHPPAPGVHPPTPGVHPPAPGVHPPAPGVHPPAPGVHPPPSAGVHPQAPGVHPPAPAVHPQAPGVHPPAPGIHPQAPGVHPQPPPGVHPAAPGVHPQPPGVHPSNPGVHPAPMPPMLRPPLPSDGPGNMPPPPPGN

This is one part of the list. Most values lie at the level of the controls, where differences are scatter.

Compound in this assay: CN[C@@H]1C[C@H]2O[C@@](C)([C@@H]1OC)n1c3ccccc3c3c4c(c5c6ccccc6n2c5c31)C(=O)NC4 [staurosporine]
The assay can be described thus: log2 fold change of tryptic peptide abundance, ligand vs vehicle (limited proteolysis) (log2 ratio); higher = more trypsin-susceptible (destabilized). The note with it: ligand concentration: 20 uM; sample: mouse liver crude lysate; replicate design: treated separately.
For “UniProt Q69ZF8 (peptide sequence: MPSHHFMPGSPTK, peptide start residue: 438)”, the log2 fold change was -0.394.

On to “UniProt Q64487 (peptide sequence: LIVNLKPEK, peptide start residue: 1071)”, for which the log2 fold change stood at 0.368. As for “UniProt Q61908 (peptide sequence: SLVCSGFEKEEEEK, peptide start residue: 47)”, the log2 fold change was -0.224.

Turning to “UniProt Q61666 (peptide sequence: IHQSTYGK, peptide start residue: 374)”, the log2 fold change turned out to be 0.404. For “UniProt Q62394 (peptide sequence: SQAALGVLR, peptide start residue: 38)”, the log2 fold change turned out to be 0.248. For “UniProt Q62165 (peptide sequence: MQSFSEVELHNMK, peptide start residue: 212)” the value was 0.432; for “UniProt Q62448 (peptide sequence: KGQLNADEISLRPAQSFLMNK, peptide start residue: 463)”, -0.171; for “UniProt Q69Z66 (peptide sequence: AMVDSPAKPASHSVK, peptide start residue: 103)”, 0.593. Regarding “UniProt Q61670 (peptide sequence: SLHQTTVIK, peptide start residue: 396)”, the log2 fold change was 0.0136. On to “UniProt Q62384 (peptide sequence: EVIIMATNCENCGHR, peptide start residue: 280)”, for which the log2 fold change was -0.629. For “UniProt Q64311 (peptide sequence: PLLVDGQR, peptide start residue: 2)”, the log2 fold change amounted to 0.092.

Consider “UniProt Q61387 (peptide sequence: NKVPELQK, peptide start residue: 57)”, for which the log2 fold change was -0.0448. As for “UniProt Q68FE9 (peptide sequence: SSLHVVDKPVISPTSTRPAASVAR, peptide start residue: 727)”, the log2 fold change stood at 1.04. Under “UniProt Q62187 (peptide sequence: FSQIGGTR, peptide start residue: 630)” stands -0.388. Take “UniProt Q64458 (peptide sequence: GTTVITSLSSVLHDSK, peptide start residue: 384)”: the log2 fold change was -0.209. In the case of “UniProt Q62276 (peptide sequence: ETLLQSYNKR, peptide start residue: 12)”, the log2 fold change was determined as 0.597. For the target “UniProt Q61606 (peptide sequence: LASSHGSHMAPAGPCHGDPCEK, peptide start residue: 430)”, the log2 fold change came to 0.157.

With “UniProt Q62481 (peptide sequence: TLLPLELQDDGSDSRK, peptide start residue: 116)”, the log2 fold change was -0.139. On to “UniProt Q61771 (peptide sequence: GVIPNSFDHIFTHISR, peptide start residue: 117)”, for which the log2 fold change was determined as 1.23. In the case of “UniProt Q68FE6 (peptide sequence: SQSFAGVLGSHER, peptide start residue: 20)”, the log2 fold change was determined as 0.303.

With “UniProt Q64213 (peptide sequence: GSDGPSHESEDFPRPLVTLPGR, peptide start residue: 616)”, the log2 fold change came to 0.451. Consider “UniProt Q62203 (peptide sequence: LRQLALETIDINKDPYFMK, peptide start residue: 30)”, for which the log2 fold change was -0.314. Under “UniProt Q68ED7 (peptide sequence: SQYLQLGPSR, peptide start residue: 48)” stands 0.092. Turning to “UniProt Q61704 (peptide sequence: FAHNVVTTR, peptide start residue: 58)”, the log2 fold change was -0.19. With “UniProt Q63886 (peptide sequence: TAFNQDSFLLR, peptide start residue: 100)”, the log2 fold change was -0.314. For “UniProt Q61712 (peptide sequence: LLIKPQWHDLLPCK, peptide start residue: 209)”, the log2 fold change stood at 0.427. Consider “UniProt Q61493 (peptide sequence: KYSNMRK, peptide start residue: 676)”, for which the log2 fold change turned out to be 0.0846. Under “UniProt Q69ZB8 (peptide sequence: LLPQVDAVLR, peptide start residue: 190)” stands -0.187; under “UniProt Q61508 (peptide sequence: EVKPHTLAGQLPPEPR, peptide start residue: 148)”, -0.282. With “UniProt Q68FE2 (peptide sequence: HRADVASALR, peptide start residue: 644)”, the log2 fold change was 0.444.
